Laboratory results reported in US20240287501A1.

Legend:
[1] = molecular target: T1, GFP-tagged FBA1 (Saccharomyces cerevisiae) (UniProt P14540); experiment: co-IP, Nb on NHS-agarose beads, lysate of GFP-fusion yeast strain, SDS-PAGE, anti-GFP Western blot, mass spectrometry
T1 sequence (looked up): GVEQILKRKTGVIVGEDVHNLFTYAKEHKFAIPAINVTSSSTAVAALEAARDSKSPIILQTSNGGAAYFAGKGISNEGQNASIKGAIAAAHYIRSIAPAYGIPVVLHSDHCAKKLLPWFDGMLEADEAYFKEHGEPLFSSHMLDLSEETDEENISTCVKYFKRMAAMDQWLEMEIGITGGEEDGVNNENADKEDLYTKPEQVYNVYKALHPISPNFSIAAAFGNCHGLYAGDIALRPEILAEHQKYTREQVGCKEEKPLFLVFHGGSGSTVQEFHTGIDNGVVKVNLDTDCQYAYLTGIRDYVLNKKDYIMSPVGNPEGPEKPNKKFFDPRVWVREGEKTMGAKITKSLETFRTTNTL

[2] = molecular target: T2, FBA1 (native, from EBY100 lysate) (Saccharomyces cerevisiae) (UniProt P14540); experiment: co-IP, Nb on NHS-agarose beads, EBY100 yeast lysate, SDS-PAGE, band identified by mass spectrometry
T2 sequence (looked up): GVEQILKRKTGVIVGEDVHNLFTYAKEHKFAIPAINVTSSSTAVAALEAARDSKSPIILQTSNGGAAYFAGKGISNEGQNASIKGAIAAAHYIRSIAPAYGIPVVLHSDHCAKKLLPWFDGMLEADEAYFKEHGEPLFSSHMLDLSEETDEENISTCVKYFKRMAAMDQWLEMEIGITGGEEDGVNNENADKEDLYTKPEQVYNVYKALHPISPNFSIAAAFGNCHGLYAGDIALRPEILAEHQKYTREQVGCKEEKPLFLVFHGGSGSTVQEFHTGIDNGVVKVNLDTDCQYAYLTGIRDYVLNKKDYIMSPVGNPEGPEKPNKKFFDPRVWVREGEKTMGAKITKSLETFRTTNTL

binding [1]: binds
binding [2]: binds
B1: CA17443 (VHH)
VHH: QVQLVESGGGSVQPGGSLRLSCAASGNILRIYSMGWSRQAPGKQRELVASITRAGSTRYADSVKGRFTISRDSTNNMVYLQMNSLEPEDTAVYFCNANPVYDGSAGYWGQGTQVTVSS

These are yes or no findings as the source states them, for the method shown. Binding seen in cells or lysates may run through a third protein. These calls come from enrichment with a bait or labelling near it, and not all partners need be listed. Sequences can lack the tags named with a protein.
